The list shows only some results of the screen, not a fair sample: it is rich in T/C values a quarter to a half above the control, in often repeated tests (any T/C) and in doses without a T/C. Other doses and runs of a compound stand elsewhere. T/C gives the treated animals as a percentage of the vehicle group. Some doses have a count of surviving animals in place of a T/C: the source files T/C as zero there, which appears to mark a toxic dose or a test without result, not a measured value. Some doses without a T/C left all or most animals alive at the check, yet need not have been tolerated: survival well below the control is almost never listed, so the zero probably covers shortened survival too. Survivors were counted at the toxicity check, usually on the fifth day, unless a day is given; later deaths do not show. Schedules are NCI's codes, taken here to give the interval after Q, in days (D) or hours (H), and the number of doses after X. Some entries hold several experiments; their values stand side by side, smallest first. Some schedule codes hold Z or #, which are not explained here. Some structures stand for samples that the source files as different forms (salt, stereo form or complex); doses refer to the form tested. Where survival is the endpoint, this PubChem deposit counts one and a half times the control or more as active, and values a quarter to a half above the control carry no call in these data; other NCI protocols may use other cut-offs. Some T/C values are followed by the survivors on the day toxicity was checked, most often the fifth; without a count, all were alive then.
Tested on: L1210 leukemia ip in BDF1 mice, survival T/C
Test: NCI In Vivo Anticancer Drug Screen. Data for tumor model L1210 Leukemia (intraperitoneal) in B6D2F1 (BDF1) mice
Conditions: T/C endpoint: mean survival time, higher T/C = longer survival
[1] = dose: 400.0 mg/kg/injection, schedule: Q04DX002 (ip), vehicle: saline with Tween-80
[2] = dose: 200.0 mg/kg/injection, schedule: Q01DX009 (ip), vehicle: saline
[3] = dose: 400.0 mg/kg/injection, schedule: Q01DX009 (ip), vehicle: saline with Tween-80
[4] = dose: 100.0 mg/kg/injection, schedule: Q04DX003 (ip), vehicle: saline with Tween-80
[5] = dose: 200.0 mg/kg/injection, schedule: Q04DX003 (ip), vehicle: saline with Tween-80
[6] = dose: 400.0 mg/kg/injection, schedule: Q04DX003 (ip), vehicle: saline with Tween-80
[7] = dose: 400.0 mg/kg/injection, schedule: Q01DX001 (ip), vehicle: saline
[8] = dose: 200.0 mg/kg/injection, schedule: Q01DX001 (ip), vehicle: saline

Question: For `COC1CCC(/C=C(\C#N)C2CCC([N+](=O)[O-])CC2)CC1Br` (stereo unspecified), which survivor count (dose: 100.0 mg/kg/injection, schedule: Q04DX002 (ip), vehicle: saline with Tween-80) is on record?
Answer: 0 of 3

Question: And the survivor count (dose: 200.0 mg/kg/injection, schedule: Q04DX002 (ip), vehicle: saline with Tween-80)?
Answer: 0 of 3

Question: And the survivor count [1]?
Answer: 0 of 3

Question: How did the T/C (dose: 200.0 mg/kg/injection, schedule: Q01DX008 (ip), vehicle: Klucel (hydroxypropylcellulose) (HPC)) turn out when `COC(OC)c1nc(N)nc(N)c1-c1ccccc1` was run?
Answer: 127 % of control

Question: And the T/C (dose: 400.0 mg/kg/injection, schedule: Q01DX008 (ip), vehicle: Klucel (hydroxypropylcellulose) (HPC))?
Answer: 136 % of control

Question: With `N/N=C/NN=C(N)N` as the compound, how does the T/C (dose: 240.0 mg/kg/injection, schedule: Q01DX Z (oral), vehicle: saline) read?
Answer: 125 % of control

Question: And the survivor count (dose: 480.0 mg/kg/injection, schedule: Q01DX Z (oral), vehicle: saline)?
Answer: 3 of 6

Question: What about the survivor count (dose: 960.0 mg/kg/injection, schedule: Q01DX Z (oral), vehicle: saline) of the same compound?
Answer: 0 of 6

Question: With `ClCOCCCCOCCl` as the compound, how does the survivor count [2] read?
Answer: 0 of 3

Question: `COc1ccc(/C=N/NC(N)=S)cc1` was tested. Which survivor count (dose: 800.0 mg/kg/injection, schedule: Q01DX009 (ip), vehicle: acetone) did it give?
Answer: 0 of 6

Question: For `COC(=O)CCc1c[nH]c2ccc(N(CCCl)CCCl)cc12`, which T/C (dose: 3.0 mg/kg/injection, schedule: Q01DX015 (ip), vehicle: carboxymethylcellulose (CMC)) is on record?
Answer: 143 % of control

Question: And the T/C (dose: 3.8 mg/kg/injection, schedule: Q01DX009 (ip), vehicle: other)?
Answer: 131 % of control [5 of 6 alive]

Question: And the T/C (dose: 6.0 mg/kg/injection, schedule: Q01DX015 (ip), vehicle: carboxymethylcellulose (CMC))?
Answer: 142 % of control

Question: And the T/C (dose: 7.5 mg/kg/injection, schedule: Q01DX009 (ip), vehicle: other)?
Answer: 141 % of control

Question: What about the T/C (dose: 12.0 mg/kg/injection, schedule: Q01DX015 (ip), vehicle: carboxymethylcellulose (CMC)) of the same compound?
Answer: 134 % of control

Question: What about the T/C (dose: 15.0 mg/kg/injection, schedule: Q04DX003 (ip), vehicle: saline) of the same compound?
Answer: 139 % of control [5 of 6 alive]

Question: What about the survivor count (dose: 24.0 mg/kg/injection, schedule: Q01DX015 (ip), vehicle: carboxymethylcellulose (CMC)) of the same compound?
Answer: 5 of 6

Question: What about the survivor count (dose: 48.0 mg/kg/injection, schedule: Q01DX015 (ip), vehicle: carboxymethylcellulose (CMC)) of the same compound?
Answer: 3 of 6

Question: What about the survivor count (dose: 50.0 mg/kg/injection, schedule: Q01DX001 (ip), vehicle: carboxymethylcellulose (CMC)) of the same compound?
Answer: 4 of 4

Question: And the survivor count (dose: 60.0 mg/kg/injection, schedule: Q04DX003 (ip), vehicle: saline)?
Answer: 3 of 6

Question: And the survivor count (dose: 90.0 mg/kg/injection, schedule: Q04DX003 (ip), vehicle: saline)?
Answer: 2 of 6

Question: And the survivor count (dose: 100.0 mg/kg/injection, schedule: Q01DX001 (ip), vehicle: carboxymethylcellulose (CMC))?
Answer: 2 of 4

Question: What about the survivor count (dose: 120.0 mg/kg/injection, schedule: Q04DX003 (ip), vehicle: saline) of the same compound?
Answer: 4 of 6

Question: What about the survivor count (dose: 180.0 mg/kg/injection, schedule: Q04DX003 (ip), vehicle: saline) of the same compound?
Answer: 0 of 6

Question: What about the survivor count (dose: 200.0 mg/kg/injection, schedule: Q01DX001 (ip), vehicle: carboxymethylcellulose (CMC)) of the same compound?
Answer: 1 of 4

Question: And the survivor count (dose: 400.0 mg/kg/injection, schedule: Q01DX001 (ip), vehicle: carboxymethylcellulose (CMC))?
Answer: 1 of 4

Question: For `CCCCCCCCCC(=O)N/N=C/c1ccncc1`, which survivor count (dose: 400.0 mg/kg/injection, schedule: Q01DX009 (ip), vehicle: Klucel (hydroxypropylcellulose) (HPC)) is on record?
Answer: 5 of 6

Question: `Cc1ccc(C[P+](c2ccccc2)(c2ccccc2)c2ccccc2)cc1` was tested. Which survivor count (dose: 16.0 mg/kg/injection, schedule: Q01DX015 (ip), vehicle: saline) did it give?
Answer: 5 of 6

Question: And the survivor count (dose: 80.0 mg/kg/injection, schedule: Q01DX001 (ip), vehicle: saline)?
Answer: 0 of 6

Question: For `COc1cc(N=Nc2ccccc2C(=O)O)ccc1O`, which survivor count [3] is on record?
Answer: 2 of 6

Question: Which results are given for `COc1ccc(CC[N+]2=Cc3cc(OC)c(OC)cc3CC2)cc1OC`?
Answer: survivor count [2]: 2 of 6; survivor count (dose: 400.0 mg/kg/injection, schedule: Q04DX003 (ip), vehicle: saline): 1 of 6

Question: How did the survivor count [4] turn out when `CCOC(=O)c1c(C)nc(C)c(C(=O)OCC)c1-c1ccc(N(C)C)cc1` was run?
Answer: 3 of 6

Question: What about the survivor count (dose: 160.0 mg/kg/injection, schedule: Q04DX002 (ip), vehicle: saline with Tween-80) of the same compound?
Answer: 0 of 3

Question: And the survivor count [5]?
Answer: 0 of 6

Question: What about the survivor count [1] of the same compound?
Answer: 0 of 3

Question: What about the survivor count [6] of the same compound?
Answer: 0 of 6

Question: How did the survivor count [7] turn out when `CCC1(C)N=C(N)Nc2nc3ccccc3n21` (stereo unspecified) was run?
Answer: 0 of 6

Question: For `C=CCC1(C(=C)C)C(=O)NC(=S)NC1=O`, which survivor count (dose: 300.0 mg/kg/injection, schedule: Q01DX001 (ip), vehicle: carboxymethylcellulose (CMC)) is on record?
Answer: 2 of 6

Question: And the survivor count (dose: 300.0 mg/kg/injection, schedule: Q01DX001 (ip), vehicle: saline)?
Answer: 3 of 6

Question: How did the survivor count (dose: 25.0 mg/kg/injection, schedule: Q01DX001 (ip), vehicle: saline) turn out when `c1ccc(C2=C([P+](c3ccccc3)(c3ccccc3)c3ccccc3)CCO2)cc1` was run?
Answer: 3 of 6

Question: What about the survivor count (dose: 25.0 mg/kg/injection, schedule: Q04DX003 (ip), vehicle: saline) of the same compound?
Answer: 3 of 6

Question: And the survivor count (dose: 50.0 mg/kg/injection, schedule: Q01DX001 (ip), vehicle: saline)?
Answer: 2 of 6

Question: And the survivor count (dose: 50.0 mg/kg/injection, schedule: Q04DX003 (ip), vehicle: saline)?
Answer: 4 of 6

Question: And the survivor count (dose: 100.0 mg/kg/injection, schedule: Q01DX001 (ip), vehicle: saline)?
Answer: 0 of 6

Question: What about the survivor count [8] of the same compound?
Answer: 0 of 6

Question: And the survivor count [7]?
Answer: 0 of 6

Question: Which survivor count [8] does the source give for `CCN(CC)CCSSCCN(CC)CC` here?
Answer: 2 of 4

Question: And the survivor count [7]?
Answer: 0 of 4

Question: How did the T/C (dose: 100.0 mg/kg/injection, schedule: Q01DX009 (ip), vehicle: carboxymethylcellulose (CMC)) turn out when `CCOC(=O)/C(C)=N\N=C(/CCOC)COC` was run?
Answer: 125 % of control

Question: And the T/C (dose: 200.0 mg/kg/injection, schedule: Q01DX009 (ip), vehicle: carboxymethylcellulose (CMC))?
Answer: 143 % of control

Question: Which T/C (dose: 200.0 mg/kg/injection, schedule: Q01DX005 (ip), vehicle: saline) does the source give for `CN(CCc1cn(C2OC(CO)C(O)C(O)C2O)cn1)C(=O)/C=C/c1ccccc1` (stereo unspecified) here?
Answer: 138 % of control

Question: How did the survivor count (dose: 200.0 mg/kg/injection, schedule: Q04DX003 (ip), vehicle: Klucel (hydroxypropylcellulose) (HPC)) turn out when `O=C(CCl)N1CC2CCC(CC2)C1` was run?
Answer: 5 of 6

Question: What about the survivor count (dose: 400.0 mg/kg/injection, schedule: Q04DX003 (ip), vehicle: Klucel (hydroxypropylcellulose) (HPC)) of the same compound?
Answer: 0 of 6

Question: For `O=c1ccoc(-c2cc(=O)cco2)c1`, which survivor count [4] is on record?
Answer: 3 of 6

Question: What about the survivor count [5] of the same compound?
Answer: 0 of 6

Question: What about the survivor count [6] of the same compound?
Answer: 1 of 6

Question: `FC(F)(F)c1cccc(P(c2cccc(C(F)(F)F)c2)c2ccccc2C(F)(F)F)c1` was tested. Which survivor count [5] did it give?
Answer: 6 of 6

Question: How did the survivor count (dose: 400.0 mg/kg/injection, schedule: Q04DX003 (ip), vehicle: other) turn out when `C/C(=N/NC(=O)c1ccccc1)c1ccc(Cl)cc1Cl` was run?
Answer: 1 of 6

Question: With `CN(C)c1ccccc1C#N` as the compound, how does the survivor count (dose: 400.0 mg/kg/injection, schedule: Q01DX009 (ip), vehicle: carboxymethylcellulose (CMC)) read?
Answer: 1 of 3

Question: For `O=C(CCN1CCCC1)c1ccc(F)cc1`, which survivor count (dose: 100.0 mg/kg/injection, schedule: Q01DX009 (ip), vehicle: saline) is on record?
Answer: 1 of 6 and 4 of 6

Question: What about the survivor count [2] of the same compound?
Answer: 0 of 6

Question: And the survivor count (dose: 400.0 mg/kg/injection, schedule: Q01DX009 (ip), vehicle: saline)?
Answer: 0 of 6

Question: How did the survivor count [3] turn out when `CCC(C)C(NC(=O)OCc1ccccc1)C(=O)ON1C(=O)CCC1=O` (stereo unspecified) was run?
Answer: 4 of 6

Question: How did the survivor count (dose: 200.0 mg/kg/injection, schedule: Q01DX001 (ip), vehicle: Klucel (hydroxypropylcellulose) (HPC)) turn out when `CC1(CCCOc2ccccc2C(=O)NCBr)N=C(N)N=C(N)N1c1ccccc1` (stereo unspecified) was run?
Answer: 0 of 6

Question: What about the survivor count (dose: 400.0 mg/kg/injection, schedule: Q01DX001 (ip), vehicle: Klucel (hydroxypropylcellulose) (HPC)) of the same compound?
Answer: 0 of 6

Question: With `CC(=O)Nc1ccc(N=CN(C)C)cc1` as the compound, how does the survivor count [3] read?
Answer: 4 of 6

Question: For `COC(=O)/C=C/N(CCF)CCF`, which survivor count (dose: 10.0 mg/kg/injection, schedule: Q01DX Z (ip), vehicle: other) is on record?
Answer: 1 of 6

Question: And the survivor count (dose: 30.0 mg/kg/injection, schedule: Q01DX Z (ip), vehicle: other)?
Answer: 0 of 6

Question: What about the survivor count (dose: 100.0 mg/kg/injection, schedule: Q01DX Z (ip), vehicle: other) of the same compound?
Answer: 0 of 6

Question: What about the survivor count (dose: 300.0 mg/kg/injection, schedule: Q01DX Z (ip), vehicle: other) of the same compound?
Answer: 0 of 6

— PubChem BioAssay AID248 (DTP/NCI, 2004)
